Results published in PubChem BioAssay AID540276 (National Center for Advancing Translational Sciences (NCATS), 2011).
Where “and” joins values, the source holds several entries; their conditions need not be identical. Equal entries are not always repeated. The campaign covered roughly 300,000 compounds. About 5,400 (1.8%) were called active. Inconclusive means that the source gave no clear call. Such entries were picked first, then a sample of the others. The call rests on the fitted dose curve; tested in HEK293 cells. Potencies beside an inconclusive call are fits to weak or partial responses and may not hold up.

Test: qHTS for inhibitors of binding or entry into cells for Marburg Virus
Settings: Marburg virus pseudotyped entry inhibition, cell reporter; series mostly up to 37.8 µM
Potency means the concentration at half of the fitted maximal effect.

| Structure (SMILES) | Potency |
| --- | --- |
| Cn1c(=O)c2sccc2n2c(CCC(=O)N3CCN(c4ccc(F)cc4)CC3)nnc12 | inactive |
| Cc1ccc(C(=O)NCc2ccccn2)o1 | inconclusive: 2.82 µM [activator, partial curve, poor fit] |
| C=CCN1C=CC(=C/C=C(/C#N)C(=O)OCC)C=C1 | inconclusive: 12.6 µM [inhibitor, single point] |
| CCC(=O)N1CCc2cc(OC)c(OC)cc2C1COc1ccc(OC)cc1 (configuration not stated) | inconclusive: 11.2 µM [inhibitor, partial curve, poor fit] |
| Cc1ccc(S(=O)(=O)N(C)c2ccc(OCC(=O)Nc3nnc(C4CC4)s3)cc2)cc1 | inconclusive: 31.6 µM [inhibitor, single point] |
| COc1cccc(C(NC(C)=O)c2ccc3cccnc3c2O)c1 (configuration not stated) | inconclusive: 2.82 µM [inhibitor, full curve, poor fit] |
| C/C(=N/NC(=O)c1ccoc1C)C12CC3CC(CC(C3)C1)C2 | inactive |
| Nc1ccc(-c2ccccc2)cc1 | inactive |
| Cc1ccc(S(=O)(=O)N2CC(O)CC2C(=O)OCc2nc3sc(C)c(C)c3c(=O)[nH]2)cc1 (configuration not stated) | inactive |
| N#Cc1ccc(N2CCN(C(=O)c3cccs3)CC2)c(F)c1 | inconclusive: 5.62 µM [inhibitor, partial curve, poor fit] |
| COc1ccc(-c2c3c(=O)n(C)c(=O)n(C)c3cn2-c2ccc(O)cc2)cc1 | inactive |
| COc1ccc(-c2nc(CSCC(=O)NC3CCCc4ccccc43)c(C)o2)cc1 (configuration not stated) | inconclusive: 6.51 µM [activator, single point] |
| Cc1nn(C)c(C)c1/C=C/C(=O)c1ccccc1 | inconclusive: 4.61 µM [activator, full curve, poor fit] |
| O=C(N/N=C/c1cnc(N2CCOCC2)s1)c1ccccc1 | inconclusive: 31.6 µM [activator, single point] |
| CCOc1ccccc1NC(=O)CN1C(=O)COc2ccc(C)cc21 | inconclusive: 1.26 µM [inhibitor, full curve, poor fit] |
| Cc1cccc(CC(=O)N2CCC(n3nccc3NC(=O)C3CC3)CC2)c1 | inactive |
| COC(=O)c1cc(CSc2nc3ccccc3c(=O)n2C)oc1C | inconclusive: 8.91 µM [inhibitor, partial curve] |
| COC(=O)c1nnn(-c2ccc(F)c(Cl)c2)c1C(=O)OC | inactive |
| CCOC(=O)c1nc(Nc2ccc(C(=O)O)cc2)c2ccccc2n1 | inactive |
| COc1ccc(COc2cc(-c3cccc(OC)c3)nc3ccc(NC(C)=O)cc23)cc1 | inactive |
| COC(=O)c1cc(-c2ccc(C)o2)nc2ccccc12 | inconclusive: 2.24 µM [activator, partial curve, poor fit] |
| Cc1ccc(NC(=O)CSc2nnc(NC(=O)C(C)C)s2)c(C)c1 | inconclusive: 35.5 µM [inhibitor, single point] |
| C/C(=N\NC(=O)c1cc(-c2cccc(OC(C)C)c2)nc2ccccc12)c1cccnc1 | inconclusive: 11.2 µM [inhibitor, partial curve] |

| Structure (SMILES) | Potency |
| --- | --- |
| Cn1c(=O)oc2cc(S(=O)(=O)Nc3cccc4c3CCCC4)ccc21 | inactive |
| COc1ccc(S(=O)(=O)N2CCc3ccccc32)cc1C(=O)OCc1c(C)noc1C | active: 3.55 µM |
| O=C(COC(=O)CN1C(=O)COc2ccccc21)NCc1ccc(F)cc1 | inconclusive: 3.55 µM [inhibitor, partial curve, poor fit] |
| Cc1ccc(C(=O)NCCn2cc(SCC(=O)N3CCOCC3)c3ccccc32)cc1 | inactive |
| O=C1CC(/C=C/c2ccccc2)(C(=O)NC2CCCC2)N1c1ccc(S(=O)(=O)N2CCCC2)cc1 (configuration not stated) | inconclusive: 10 µM [inhibitor, partial curve] |
| CN(C)S(=O)(=O)c1ccc(-c2csc(N/N=C/c3ccco3)n2)cc1 | inconclusive: 7.08 µM [inhibitor, partial curve, poor fit] |
| CCc1ccc(OCCNC(=O)c2cc(SC)ccc2Cl)cc1 | inactive |
| CC(C)CNc1nc(S(=O)(=O)c2ccccc2)c(Cl)s1 | inactive |
| CC1CCc2c(sc3nnn(Cc4cccc(C(=O)OC(C)C)c4)c(=O)c23)C1 (configuration not stated) | inactive |
| Cc1ccccc1NC(=O)c1nnn(-c2ccc3c(c2)OCCO3)c1N | inconclusive: 17.8 µM [inhibitor, single point] |
| O=C(Cc1c(F)cccc1Cl)Nc1cc(S(=O)(=O)N2CCCCC2)ccc1N1CCOCC1 | inconclusive: 32.6 µM [inhibitor, single point] |
| COc1ccccc1Nc1nc(N)nc(CSC(=S)N2CCC(C)CC2)n1 | inconclusive: 0.562 µM [inhibitor, full curve, poor fit] |
| COc1ccc(C)cc1N(C(=O)c1ccco1)C(C(=O)NC1CCCC1)c1ccc(N2CCOCC2)cc1 (configuration not stated) | inconclusive: 3.16 µM [inhibitor, partial curve, poor fit] |
| Cn1c(-n2cccc2)c(-c2c(-c3ccc(F)cc3)[nH]c3c2c(=O)n(C)c(=O)n3C)c(=O)n(C)c1=O | inactive |
| Cc1ccc(Nc2nc(C)nc3c2oc2ccccc23)cc1 | inconclusive: 2 µM [activator, single point] |
| O=C(CCCCn1c(=O)[nH]c2ccccc2c1=O)N1CCN(c2cccc(C(F)(F)F)c2)CC1 | active: 9.2 µM |
| CC(C(=O)Nc1ccccc1-c1ccccc1)N1CCCCC1 (configuration not stated) | inconclusive: 0.398 µM [activator, partial curve, poor fit] |
| COc1ccccc1OCCCCN1CCN(C(c2ccccc2)c2ccccc2)CC1 | inconclusive: 18.4 µM [inhibitor, single point] |
| Cc1ccc(S(=O)(=O)N2CCC(=O)N([C@H](COCc3cccc(C)c3)C(C)C)CC2)cc1 | inconclusive: 35.3 µM [inhibitor, single point] |
| O=C1NC(c2ccccc2)=C(c2ccc3ccccc3n2)C(c2ccccc2)N1 (configuration not stated) | inconclusive: 12.6 µM [inhibitor, partial curve, poor fit] |
| CCS(=O)(=O)c1ccc2oc(Nc3ccccc3Cl)nc2c1 | inconclusive: 14.1 µM [activator, partial curve] |
| CCCCN(C)Cc1c(C(=O)N2CCc3ccccc3C2)nc2ccc(Cl)cn12 | inconclusive: 35.5 µM [inhibitor, partial curve, poor fit] |

Looked up one by one from the list above, 5 records:

| Structure (SMILES) | Potency |
| --- | --- |
| CC1CCc2c(sc3nnn(Cc4cccc(C(=O)OC(C)C)c4)c(=O)c23)C1 (configuration not stated) | inactive |
| O=C1NC(c2ccccc2)=C(c2ccc3ccccc3n2)C(c2ccccc2)N1 (configuration not stated) | inconclusive: 12.6 µM [inhibitor, partial curve, poor fit] |
| Cn1c(=O)oc2cc(S(=O)(=O)Nc3cccc4c3CCCC4)ccc21 | inactive |
| CCCCN(C)Cc1c(C(=O)N2CCc3ccccc3C2)nc2ccc(Cl)cn12 | inconclusive: 35.5 µM [inhibitor, partial curve, poor fit] |
| CCS(=O)(=O)c1ccc2oc(Nc3ccccc3Cl)nc2c1 | inconclusive: 14.1 µM [activator, partial curve] |

The listing continues.

| Structure (SMILES) | Potency |
| --- | --- |
| CCc1c(C)sc(NC(=O)c2cccs2)c1C(=O)OC(C)C | active: 9.2 µM |
| O=C1C(=O)N(CCO)C(c2ccccc2[N+](=O)[O-])/C1=C(\O)c1ccccc1 (configuration not stated) | inconclusive: 0.794 µM [activator, single point] |
| Cc1ccc(S(=O)(=O)N2CCC(C(=O)Nc3ccccc3N3CCCCC3)CC2)cc1 | inconclusive: 6.51 µM [inhibitor, full curve, poor fit] |
| Cc1ccc(Cl)cc1N1CCN(C(=O)Cc2cn(C)c3ccccc23)CC1 | inconclusive: 11.6 µM [inhibitor, partial curve, poor fit] |
| C/C(Cn1nc([N+](=O)[O-])cc1C)=N\NC(=O)c1ccc(O)cc1O | inactive |
| C=CCCC1(C)C(=O)N(c2ccccc2)c2ccccc21 (configuration not stated) | inconclusive: 29.1 µM [inhibitor, single point] |
| Cn1c(=N)n(CC(=O)c2ccc(F)cc2)c2ccccc21 | inconclusive: 2.51 µM [inhibitor, full curve, poor fit] |
| O=C(Nc1cccs1)Nc1ccc(F)cc1F | inactive |
| COc1ccc(-n2nc3ccc(NC(=O)c4ccc(C#N)cc4F)cc3n2)cc1Cl | inconclusive: 6.31 µM [inhibitor, single point] |
| CCN(CC)CC(=O)Nc1ccc(Oc2ccc(NC(=O)CN(CC)CC)cc2)cc1 | active: 3.98 µM |
| Cc1ccc(NC(=O)CCc2c(C)nn(-c3ccc(N4CCOCC4)nn3)c2C)c(C)c1 | inconclusive: 5.62 µM [inhibitor, single point] |
| Cc1cc(C)c(S(=O)(=O)N2CCN(c3ccc([N+](=O)[O-])c(NCC4CCCO4)c3)CC2)c(C)c1 (configuration not stated) | inconclusive: 20.6 µM [inhibitor, single point] |
| CSc1cccc(NC(=O)c2nnn(Cc3ccccc3)c2N)c1 | inactive |
| O=C(CSc1cccc(C(F)(F)F)c1)Nc1cc(S(=O)(=O)N2CCCC2)ccc1Cl | inconclusive: 16.4 µM [inhibitor, single point] |
| COc1cccc(-c2cc(C(=O)Nn3cnnc3)c3ccccc3n2)c1 | inactive |
| COc1ccccc1NC(=O)c1ccc2nc(C)sc2c1 | inactive |
| COc1cccc2c1cc1c(=O)n(CC(=O)N3CCN(c4cccc(C(F)(F)F)c4)CC3)nc(C)n12 | inconclusive: 12.6 µM [activator, partial curve, poor fit] |
| CCOc1ccccc1NC(=O)C(CC(C)C)NC(=O)C1CCC(C)CC1 (configuration not stated) | inactive and inconclusive: 5.01 µM [inhibitor, partial curve, poor fit] |
| O=C(NC(=S)Nc1ccc(-c2nc3ncccc3o2)cc1)c1ccccc1F | inconclusive: 3.98 µM [inhibitor, full curve] |
| CCCNC(=O)OC[C@H]1O[C@H](CCON=C2[C@H]3CCn4c(=O)n(-c5ccccc5)c(=O)n4[C@@H]3[C@H](O)[C@@H]3O[C@H]23)C=C[C@H]1Oc1ccc(OC)cc1 | inconclusive: 2.66 µM [activator, single point] |
| O=C(O)CCCNC(=O)C(c1ccccc1)c1ccccc1 | inconclusive: 0.447 µM [inhibitor, full curve, poor fit] |
